We go through 14 compounds from patent US5336763A, “Trisazo dye and dye composition containing the same” (Orient Chemical Industries, Ltd., priority 1992, dated 1994).

The nature of series [1]: Water resistance of writing (drawdown paper dipped in tap water, Macbeth densitometer). Particulars: drawdown paper air-dried one day.
Series [2] in a line: Light resistance of writing (drawdown paper exposed to sunlight). The arrangement: key: A: Little discoloration is observed; B: Discoloration is observed; C: Discoloration is severe. The following applies: exposed to sunlight for one month.

Regarding `Nc1ccc(N=Nc2ccc(Oc3cccc(Oc4ccc(N=Nc5c(S(=O)(=O)O)cc6cc(S(=O)(=O)O)c(N=Nc7ccccc7)c(O)c6c5N)cc4)c3)cc2)c(O)c1` [Ex. 1], the “Writing evaluation: Water resistance” value in series [1] is on record as “A (Reflection density is more than 70% of that before testing)”. Further, the “Writing evaluation: Light resistance” value in series [2] was “B”.

Take `Nc1c(N=Nc2ccc(Oc3cccc(Oc4ccc(N=Nc5ccc(O)cc5O)cc4)c3)cc2)c(S(=O)(=O)O)cc2cc(S(=O)(=O)O)c(N=Nc3ccccc3)c(O)c12` [Ex. 2]: the “Writing evaluation: Water resistance” value in series [1] was “B (Reflection density is 50 to 70% of that before testing)”. Also, the “Writing evaluation: Light resistance” value in series [2] is “B”.

As to `CCC(C)c1ccc(N=Nc2c(S(=O)(=O)O)cc3cc(S(=O)(=O)O)c(N=Nc4ccc(Oc5cccc(Oc6ccc(N=Nc7ccc(O)cc7O)cc6)c5)cc4)c(N)c3c2O)cc1` (stereo not shown) [Ex. 3], the “Writing evaluation: Water resistance” value in series [1] is “A (Reflection density is more than 70% of that before testing)”. In series [2], the “Writing evaluation: Light resistance” value is recorded as “B”.

In the case of `Nc1ccc(N=Nc2ccc(Oc3ccc(Oc4ccc(N=Nc5c(S(=O)(=O)O)cc6cc(S(=O)(=O)O)c(N=Nc7ccccc7)c(O)c6c5N)cc4)cc3)cc2)c(O)c1` [Ex. 4], the “Writing evaluation: Water resistance” value in series [1] is reported as “A (Reflection density is more than 70% of that before testing)”. In series [2], the “Writing evaluation: Light resistance” value is listed as “B”.

Take `Nc1c(N=Nc2ccc(Oc3ccc(Oc4ccc(N=Nc5ccc(O)cc5O)cc4)cc3)cc2)c(S(=O)(=O)O)cc2cc(S(=O)(=O)O)c(N=Nc3ccccc3)c(O)c12` [Ex. 5]: the “Writing evaluation: Water resistance” value in series [1] is reported as “B (Reflection density is 50 to 70% of that before testing)”. Further, in series [2], the “Writing evaluation: Light resistance” value is “B”.

As to `CCC(C)c1ccc(N=Nc2c(S(=O)(=O)O)cc3cc(S(=O)(=O)O)c(N=Nc4ccc(Oc5ccc(Oc6ccc(N=Nc7ccc(O)cc7O)cc6)cc5)cc4)c(N)c3c2O)cc1` (stereo not shown) [Ex. 6], the “Writing evaluation: Water resistance” value in series [1] is recorded as “A (Reflection density is more than 70% of that before testing)”. The “Writing evaluation: Light resistance” value in series [2] is on record as “B”.

As to `Cc1ccccc1N=Nc1c(S(=O)(=O)O)cc2cc(S(=O)(=O)O)c(N=Nc3ccc(Oc4ccc(Oc5ccc(N=Nc6ccc(O)cc6O)cc5)cc4)cc3)c(N)c2c1O` [Ex. 7], in series [1], the “Writing evaluation: Water resistance” value is on record as “A (Reflection density is more than 70% of that before testing)”. Moreover, in series [2], the “Writing evaluation: Light resistance” value is reported as “B”.

Regarding `Nc1ccc(N=Nc2ccc(Oc3ccc(Oc4ccc(N=Nc5c(S(=O)(=O)O)cc6cc(S(=O)(=O)O)c(N=Nc7ccc(S(=O)(=O)O)cc7)c(O)c6c5N)cc4)cc3)cc2)c(O)c1` [Ex. 8], in series [1], the “Writing evaluation: Water resistance” value is given as “B (Reflection density is 50 to 70% of that before testing)”. In series [2], the “Writing evaluation: Light resistance” value is given as “B”.

In the case of `Nc1ccc(N=Nc2ccc(Oc3cccc(Oc4ccc(N=Nc5cc(S(=O)(=O)O)c6cc(S(=O)(=O)O)c(N=Nc7ccccc7)c(O)c6c5N)cc4)c3)cc2)c(O)c1` [Ex. 9], the “Writing evaluation: Water resistance” value in series [1] is on record as “A (Reflection density is more than 70% of that before testing)”. Moreover, in series [2], the “Writing evaluation: Light resistance” value is “B”.

On to `Nc1c(N=Nc2ccc(Oc3ccc(Oc4ccc(N=Nc5ccc(O)cc5O)cc4)cc3)cc2)cc(S(=O)(=O)O)c2ccc(N=Nc3ccccc3)c(O)c12` [Ex. 10], for which the “Writing evaluation: Water resistance” value in series [1] is recorded as “A (Reflection density is more than 70% of that before testing)”. For the same compound, the “Writing evaluation: Light resistance” value in series [2] was “B”.

Turning to `Nc1ccc2c(O)c(N=Nc3ccccc3)c(S(=O)(=O)O)cc2c1N=Nc1ccc(Oc2ccc(Oc3ccc(N=Nc4ccc(O)cc4O)cc3)cc2)cc1` [Ex. 11], the “Writing evaluation: Water resistance” value in series [1] was “A (Reflection density is more than 70% of that before testing)”. Besides, in series [2], the “Writing evaluation: Light resistance” value is “B”.

For `Cc1cc(-c2ccc(N=Nc3c(S(=O)(=O)O)cc4cc(S(=O)(=O)O)c(N=Nc5ccccc5)c(O)c4c3N)c(C)c2)ccc1N=Nc1ccc(N)cc1N` [compound 1, reference compound], the “Writing evaluation: Water resistance” value in series [1] was “B (Reflection density is 50 to 70% of that before testing)”. In addition, the “Writing evaluation: Light resistance” value in series [2] is listed as “B”.

On to `Nc1ccc(N=Nc2ccc(S(=O)(=O)c3ccc(N=Nc4c(S(=O)(=O)O)cc5cc(S(=O)(=O)O)c(N=Nc6ccccc6)c(O)c5c4N)cc3)cc2)c(O)c1` [compound 2, reference compound], for which the “Writing evaluation: Water resistance” value in series [1] is given as “C (Reflection density is less than 50% that before testing)”. Also, in series [2], the “Writing evaluation: Light resistance” value was “B”.

Consider `Cc1cc(-c2ccc(N=Nc3c(S(=O)(=O)O)cc4cc(S(=O)(=O)O)c(N=Nc5ccc(S(=O)(=O)O)cc5)c(O)c4c3N)c(C)c2)ccc1N=Nc1ccc(O)cc1O` [compound 3, reference compound], for which the “Writing evaluation: Water resistance” value in series [1] is reported as “C (Reflection density is less than 50% that before testing)”. In addition, the “Writing evaluation: Light resistance” value in series [2] is listed as “B”.
